Experimental data: the supplement of paper PMC6411743
± gives the standard deviation of the averaged measurements. The list shows a part of the results.

Tests used:
Experiment in all cases: NP40-soluble protein abundance relative to vehicle (solubility fold change) (ratio); higher = more soluble protein in presence of GTP
[1] = target: T1, UniProt Q8N5A5 and related entries
T1 sequence (whole entry): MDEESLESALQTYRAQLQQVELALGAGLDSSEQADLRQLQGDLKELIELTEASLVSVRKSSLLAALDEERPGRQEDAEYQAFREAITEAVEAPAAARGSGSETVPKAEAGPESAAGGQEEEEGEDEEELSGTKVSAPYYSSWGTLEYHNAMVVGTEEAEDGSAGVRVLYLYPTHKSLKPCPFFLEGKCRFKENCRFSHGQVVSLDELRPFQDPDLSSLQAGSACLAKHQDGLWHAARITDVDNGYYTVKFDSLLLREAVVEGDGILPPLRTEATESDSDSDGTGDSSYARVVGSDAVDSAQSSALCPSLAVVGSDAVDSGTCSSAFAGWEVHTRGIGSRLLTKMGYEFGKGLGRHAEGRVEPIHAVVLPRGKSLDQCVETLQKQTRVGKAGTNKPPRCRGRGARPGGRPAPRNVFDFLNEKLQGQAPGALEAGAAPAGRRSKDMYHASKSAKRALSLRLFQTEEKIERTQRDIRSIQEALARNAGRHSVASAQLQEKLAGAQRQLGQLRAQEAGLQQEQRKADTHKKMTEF
Procedure, shortened: (§1)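 Across three independent experiments, values are fold changes against the detergent-processed vehicle for each replicate, based on vsn-normalised intensities. The samples were Jurkat crude lysate treated with eight concentrations (0.1 to 10 mM) for 10 min at room temperature and then 3 min at 37 °C. Lysate was solubilised with 0.8% NP40 and benzonase, ultracentrifuged, and the supernatant analysed by TMT-labelled LC-MS/MS.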

UniProt Q8N5L8 = target: T2, UniProt Q8N5L8
T2 sequence (whole entry): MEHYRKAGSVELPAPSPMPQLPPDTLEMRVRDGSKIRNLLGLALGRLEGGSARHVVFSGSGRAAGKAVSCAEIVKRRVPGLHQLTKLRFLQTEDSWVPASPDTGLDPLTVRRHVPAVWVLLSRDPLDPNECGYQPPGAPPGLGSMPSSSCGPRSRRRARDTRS
Procedure, shortened: as §1

[2] = target: T3, UniProt Q8N5Y8 and related entries
T3 sequence (whole entry): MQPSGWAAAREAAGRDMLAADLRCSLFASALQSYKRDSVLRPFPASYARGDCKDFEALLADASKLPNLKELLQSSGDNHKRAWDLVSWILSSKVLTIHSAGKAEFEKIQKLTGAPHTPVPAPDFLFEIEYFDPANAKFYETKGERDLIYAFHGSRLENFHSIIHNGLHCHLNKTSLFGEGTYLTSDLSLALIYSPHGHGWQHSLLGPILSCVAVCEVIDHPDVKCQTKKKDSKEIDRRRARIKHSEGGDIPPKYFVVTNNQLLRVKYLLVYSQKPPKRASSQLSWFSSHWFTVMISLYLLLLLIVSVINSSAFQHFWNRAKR
Procedure, shortened: as §1

[3] = target: T4, UniProt Q8NBM4 and related entries
T4 sequence (whole entry): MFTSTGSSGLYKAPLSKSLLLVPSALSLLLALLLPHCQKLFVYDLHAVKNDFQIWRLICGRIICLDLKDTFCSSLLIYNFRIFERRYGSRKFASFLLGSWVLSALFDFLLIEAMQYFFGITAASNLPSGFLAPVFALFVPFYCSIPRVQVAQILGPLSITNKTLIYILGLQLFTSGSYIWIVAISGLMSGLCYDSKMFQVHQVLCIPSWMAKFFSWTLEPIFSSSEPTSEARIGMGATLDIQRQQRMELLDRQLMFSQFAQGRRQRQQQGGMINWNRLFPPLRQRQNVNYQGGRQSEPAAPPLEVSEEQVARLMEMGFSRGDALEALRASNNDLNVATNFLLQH
Procedure, shortened: as §1

[4] = target: T5, UniProt Q8NBN7 and related entries
T5 sequence (whole entry): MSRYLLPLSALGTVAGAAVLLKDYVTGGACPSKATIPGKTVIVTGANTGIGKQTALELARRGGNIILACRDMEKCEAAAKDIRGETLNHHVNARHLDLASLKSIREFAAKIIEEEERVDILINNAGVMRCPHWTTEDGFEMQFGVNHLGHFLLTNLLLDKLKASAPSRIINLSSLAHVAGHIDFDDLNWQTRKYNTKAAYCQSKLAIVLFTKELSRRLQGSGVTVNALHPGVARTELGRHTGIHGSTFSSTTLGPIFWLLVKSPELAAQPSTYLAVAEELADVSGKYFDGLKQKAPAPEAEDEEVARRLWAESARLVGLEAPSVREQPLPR
Procedure, shortened: as §1

[5] = target: T6, UniProt Q8TB36 and related entries
T6 sequence (whole entry): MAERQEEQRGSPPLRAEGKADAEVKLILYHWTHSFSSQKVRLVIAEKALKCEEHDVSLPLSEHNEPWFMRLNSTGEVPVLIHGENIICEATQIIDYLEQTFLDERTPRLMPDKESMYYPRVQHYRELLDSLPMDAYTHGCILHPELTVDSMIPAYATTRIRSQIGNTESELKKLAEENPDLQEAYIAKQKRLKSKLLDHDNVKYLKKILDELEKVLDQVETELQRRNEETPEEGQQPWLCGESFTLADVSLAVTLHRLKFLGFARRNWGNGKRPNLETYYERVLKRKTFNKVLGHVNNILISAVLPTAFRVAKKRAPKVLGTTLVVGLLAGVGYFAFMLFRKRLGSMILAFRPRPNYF
Procedure, shortened: as §1

Question: `Nc1nc2c(ncn2[C@@H]2O[C@H](COP(=O)(O)OP(=O)(O)OP(=O)(O)O)[C@@H](O)[C@H]2O)c(=O)[nH]1` [guanosine triphosphate] was tested. Which NP40-soluble protein abundance ([1]; concentration: 8mM) did it give?
Answer: The NP40-soluble protein abundance was 1.13 ± 0.072.

Question: What about the NP40-soluble protein abundance ([1]; concentration: 10mM) of the same molecule?
Answer: The NP40-soluble protein abundance was 1.15 ± 0.08.

Question: And the NP40-soluble protein abundance (UniProt Q8N5L8; concentration: 0.1mM)?
Answer: The NP40-soluble protein abundance was 0.973 ± 0.088.

Question: And the NP40-soluble protein abundance (UniProt Q8N5L8; concentration: 0.5mM)?
Answer: Its NP40-soluble protein abundance is 0.914 ± 0.12.

Question: And the NP40-soluble protein abundance (UniProt Q8N5L8; concentration: 1mM)?
Answer: The NP40-soluble protein abundance was 1.2 ± 0.16.

Question: And the NP40-soluble protein abundance (UniProt Q8N5L8; concentration: 2mM)?
Answer: Its NP40-soluble protein abundance is 1.21 ± 0.08.

Question: And the NP40-soluble protein abundance (UniProt Q8N5L8; concentration: 4mM)?
Answer: Its NP40-soluble protein abundance is 1.26 ± 0.082.

Question: What about the NP40-soluble protein abundance (UniProt Q8N5L8; concentration: 6mM) of the same molecule?
Answer: Its NP40-soluble protein abundance is 1.25 ± 0.12.

Question: And the NP40-soluble protein abundance (UniProt Q8N5L8; concentration: 8mM)?
Answer: The NP40-soluble protein abundance was 1.31 ± 0.2.

Question: What about the NP40-soluble protein abundance (UniProt Q8N5L8; concentration: 10mM) of the same molecule?
Answer: Its NP40-soluble protein abundance is 1.38 ± 0.22.

Question: What about the NP40-soluble protein abundance ([2]; concentration: 0.1mM) of the same molecule?
Answer: Its NP40-soluble protein abundance is 1.04 ± 0.075.

Question: What about the NP40-soluble protein abundance ([2]; concentration: 0.5mM) of the same molecule?
Answer: The NP40-soluble protein abundance was 1.06 ± 0.12.

Question: And the NP40-soluble protein abundance ([2]; concentration: 1mM)?
Answer: Its NP40-soluble protein abundance is 1.01 ± 0.088.

Question: And the NP40-soluble protein abundance ([2]; concentration: 2mM)?
Answer: The NP40-soluble protein abundance was 1.02 ± 0.11.

Question: What about the NP40-soluble protein abundance ([2]; concentration: 4mM) of the same molecule?
Answer: The NP40-soluble protein abundance was 1.06 ± 0.14.

Question: And the NP40-soluble protein abundance ([2]; concentration: 6mM)?
Answer: The NP40-soluble protein abundance was 1.01 ± 0.076.

Question: And the NP40-soluble protein abundance ([2]; concentration: 8mM)?
Answer: Its NP40-soluble protein abundance is 0.966 ± 0.11.

Question: And the NP40-soluble protein abundance ([2]; concentration: 10mM)?
Answer: The NP40-soluble protein abundance was 0.976 ± 0.11.

Question: And the NP40-soluble protein abundance ([3]; concentration: 0.1mM)?
Answer: The NP40-soluble protein abundance was 1.07 ± 0.063.

Question: What about the NP40-soluble protein abundance ([3]; concentration: 0.5mM) of the same molecule?
Answer: The NP40-soluble protein abundance was 0.969 ± 0.056.

Question: What about the NP40-soluble protein abundance ([3]; concentration: 1mM) of the same molecule?
Answer: The NP40-soluble protein abundance was 0.969 ± 0.026.

Question: What about the NP40-soluble protein abundance ([3]; concentration: 2mM) of the same molecule?
Answer: The NP40-soluble protein abundance was 1.02 ± 0.051.

Question: And the NP40-soluble protein abundance ([3]; concentration: 4mM)?
Answer: The NP40-soluble protein abundance was 1.06 ± 0.029.

Question: What about the NP40-soluble protein abundance ([3]; concentration: 6mM) of the same molecule?
Answer: The NP40-soluble protein abundance was 1.06 ± 0.042.

Question: And the NP40-soluble protein abundance ([3]; concentration: 8mM)?
Answer: Its NP40-soluble protein abundance is 1.03 ± 0.052.

Question: What about the NP40-soluble protein abundance ([3]; concentration: 10mM) of the same molecule?
Answer: The NP40-soluble protein abundance was 1.03 ± 0.084.

Question: What about the NP40-soluble protein abundance ([4]; concentration: 0.1mM) of the same molecule?
Answer: Its NP40-soluble protein abundance is 0.969 ± 0.067.

Question: And the NP40-soluble protein abundance ([4]; concentration: 0.5mM)?
Answer: Its NP40-soluble protein abundance is 1.02 ± 0.096.

Question: What about the NP40-soluble protein abundance ([4]; concentration: 1mM) of the same molecule?
Answer: The NP40-soluble protein abundance was 1 ± 0.052.

Question: And the NP40-soluble protein abundance ([4]; concentration: 2mM)?
Answer: Its NP40-soluble protein abundance is 0.999 ± 0.087.

Question: What about the NP40-soluble protein abundance ([4]; concentration: 4mM) of the same molecule?
Answer: Its NP40-soluble protein abundance is 0.949 ± 0.044.

Question: What about the NP40-soluble protein abundance ([4]; concentration: 6mM) of the same molecule?
Answer: The NP40-soluble protein abundance was 0.973 ± 0.064.

Question: And the NP40-soluble protein abundance ([4]; concentration: 8mM)?
Answer: Its NP40-soluble protein abundance is 0.932 ± 0.065.

Question: What about the NP40-soluble protein abundance ([4]; concentration: 10mM) of the same molecule?
Answer: Its NP40-soluble protein abundance is 0.964 ± 0.07.

Question: And the NP40-soluble protein abundance ([5]; concentration: 0.1mM)?
Answer: Its NP40-soluble protein abundance is 0.967 ± 0.032.

Question: What about the NP40-soluble protein abundance ([5]; concentration: 0.5mM) of the same molecule?
Answer: Its NP40-soluble protein abundance is 0.987 ± 0.037.

Question: And the NP40-soluble protein abundance ([5]; concentration: 1mM)?
Answer: The NP40-soluble protein abundance was 0.916 ± 0.038.

Question: And the NP40-soluble protein abundance ([5]; concentration: 2mM)?
Answer: Its NP40-soluble protein abundance is 0.924 ± 0.058.

Question: What about the NP40-soluble protein abundance ([5]; concentration: 4mM) of the same molecule?
Answer: Its NP40-soluble protein abundance is 0.894 ± 0.024.

Question: What about the NP40-soluble protein abundance ([5]; concentration: 6mM) of the same molecule?
Answer: The NP40-soluble protein abundance was 0.918 ± 0.041.

Question: And the NP40-soluble protein abundance ([5]; concentration: 8mM)?
Answer: The NP40-soluble protein abundance was 0.891 ± 0.032.

Question: What about the NP40-soluble protein abundance ([5]; concentration: 10mM) of the same molecule?
Answer: Its NP40-soluble protein abundance is 0.88 ± 0.038.
